The other results are listed elsewhere or left out. Most entries show no effect beyond the scatter of the controls.
system: ppGalNAc-T2 sensor; assay: T2 sensor activation Q score (MG/GFP ratio z-score vs DMSO controls) (SD units); higher = more sensor activation (inhibition of ppGalNAc-T2 glycosylation); conditions: HEK293 sensor cells; 10 µM; 6 h
Protocol: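 Cells were treated with compound at 10 uM for 6 h, then MG/GFP ratio was read by flow cytometry (10,000 cells per well, duplicate wells). Q = (R - R_neg)/SD_neg relative to DMSO vehicle controls; the signal rises when the glycosyltransferase is inhibited.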

| Structure (SMILES) | T2 sensor activation Q score |
| --- | --- |
| Cc1ccccc1NC1=C(N)C(=O)c2ccccc2C1=O | 0.81 |
| O=C(c1ccc([N+](=O)[O-])cc1Cl)N1CCOCC1 | 0.51 |
| Nc1ccc(Sc2nc3ccccc3s2)c(Cl)c1 | 0.215 |
| O=C(c1ccc(Cl)cc1)n1cnc2ccccc21 | -0.29 |
| O=C(CN1CCCC1)N1c2ccccc2C=Cc2ccccc21 | -0.28 |
| CC(=O)Nc1ccc(NC(C)=O)cc1 | -0.03 |
| NC(=O)c1c(NC(=O)C23CC4CC(CC(C4)C2)C3)sc2c1CCCC2 | -0.2 |
| CC(C)CNC(=O)c1ccc(Br)o1 | 0.94 |
| CN(CCc1ccccc1)C1CCN(Cc2ccccc2)CC1 | -0.34 |
| CCCNC(=O)N1c2ccccc2Sc2ccccc21 | -0.165 |
| O=C(Nc1ccccc1Oc1ccccc1)C1CCCC1 | 0.32 |
| CC(C)(C)NC(=O)Nc1ccc2nccnc2c1 | -0.595 |
| COc1ccc(Br)cc1CN1CCc2ccccc2C1 | 1.67 |
| O=C(O)CNC(=O)c1ccccc1Cl | -0.125 |
| CN1c2ccccc2N(C)C1c1ccc2c(c1)OCO2 | -0.095 |
| CCOc1ccc(NC(=O)Nc2ccccc2)cc1 | 1.5 |
| CSc1ccc(CN2CCCN(C)CC2)cc1 | 0.405 |
| Brc1ccc2[nH]c3c(c2c1)CCCC3NCc1ccccc1 (stereo not given) | -1.2 |
| COc1ccc(O)c(CN2CCCC(C)C2)c1 (stereo not given) | 0.515 |
| CCN(CC)C(=O)C1CCCN(Cc2ccccc2)C1 (stereo not given) | -1.02 |

Part of the list above in a different format.
O=C(CN1CCCC1)N1c2ccccc2C=Cc2ccccc21
  T2 sensor activation Q score: -0.28
CC(=O)Nc1ccc(NC(C)=O)cc1
  T2 sensor activation Q score: -0.03

Additional structures follow.

| Structure (SMILES) | T2 sensor activation Q score |
| --- | --- |
| O=C(c1ccc(C(=O)N2CCCCCC2)cc1)N1CCCCCC1 | -0.335 |
| COc1ccc(-n2c(C)c([N+](=O)[O-])c3ccc(O)cc32)cc1 | 1.25 |
| CC(=O)C1=C(O)C(=O)N(CCO)C1c1ccc(Br)cc1 (stereo not given) | -0.225 |
| C=CCc1c(C)nc(SC)[nH]c1=O | 0.915 |
| Cc1ccc(C)c(CN2CCN(c3ccccn3)CC2)c1 | -0.39 |
| CCOc1ccc(CN(C)C2CCN(C)CC2)cc1 | 0.28 |
| CC(=O)c1cccc(NC(=O)c2ccccc2-c2ccccc2C(=O)O)c1 | -1.03 |
| O=C(O)c1ccccc1-c1ncc(-c2ccccc2)o1 | -1.51 |
| O=c1c2c(nc3n1CC(O)CS3)-c1ccccc1CC21CCCC1 (stereo not given) | -0.445 |
| O=C(Nc1ccccc1)Oc1c(Cl)cc(Cl)cc1Br | 0.795 |
| O=[N+]([O-])c1cccc(CN2CCC(Cc3ccccc3)CC2)c1 | -0.55 |
| O=S(=O)(Nc1ccccn1)c1ccc(Cl)cc1 | -0.63 |
| COc1cc(NS(=O)(=O)c2ccc(NC(C)=O)cc2)c(OC)cc1Cl | -0.13 |
| O=C(NCc1ccco1)c1cccc(Cl)c1 | 0.005 |
| NNC(=O)COc1ccc(Cl)cc1Cl | -0.24 |
| CN1C(=O)CC(N2CCN(Cc3ccccc3)CC2)C1=O (stereo not given) | -0.205 |
| NC(=O)C1CCCN(Cc2ccc(F)cc2)C1 (stereo not given) | -0.6 |
| O=S(=O)(Nc1ccc(F)cc1)c1ccc(F)cc1 | -0.555 |
| Cc1cccc(N2CCN(Cc3ccc(Br)o3)CC2)c1C | 0.635 |
| O=C(Nc1ccc(-c2ccc([N+](=O)[O-])cc2)cc1)c1ccc(F)cc1 | 0.065 |
